Assay results taken from US11365200B2, “ATF3 induction compounds” (TAIPEI MEDICAL UNIVERSITY, priority 2017, dated 2022).

Assay: Animal model for obesity (45% high fat diet)
Format: in vivo
Conditions: HFD-fed WT mice

Row | SMILES | food intake (0.5 mg/kg/day or 1 mg/kg/day i.p., FIG. 5A right) | food intake (1 or 10 mg/kg/day, FIG. 6B)
1 | C[C@@H]1Oc2c(c(=O)oc3c2ccc2ccccc23)[C@H]1C [ST32da, (1R,2S)-1,2-dimethyl-1H-benzo[h]furo[3,2-c]chromen-11(2H)-one] | without affecting their food intake | 
2 | C[C@@H]1c2c(c3ccc4ccccc4c3oc2=O)O[C@@H]1C [ST32db, (1R,2R)-1,2-dimethyl-1H-benzo[h]furo[3,2-c]chromen-11(2H)-one] |  | without affecting their food intake
